In publication PMC8167164:
These are yes or no findings as the source states them, for the method shown. In cells and extracts the contact can be indirect. Some binding calls cover weakened binding; strength is not graded here. Values belong to the molecule of their own block, whether it stands above or below them.

The chains behind the UniProt entries cited, without tags or fusion partners.
UniProt Q9R1E0: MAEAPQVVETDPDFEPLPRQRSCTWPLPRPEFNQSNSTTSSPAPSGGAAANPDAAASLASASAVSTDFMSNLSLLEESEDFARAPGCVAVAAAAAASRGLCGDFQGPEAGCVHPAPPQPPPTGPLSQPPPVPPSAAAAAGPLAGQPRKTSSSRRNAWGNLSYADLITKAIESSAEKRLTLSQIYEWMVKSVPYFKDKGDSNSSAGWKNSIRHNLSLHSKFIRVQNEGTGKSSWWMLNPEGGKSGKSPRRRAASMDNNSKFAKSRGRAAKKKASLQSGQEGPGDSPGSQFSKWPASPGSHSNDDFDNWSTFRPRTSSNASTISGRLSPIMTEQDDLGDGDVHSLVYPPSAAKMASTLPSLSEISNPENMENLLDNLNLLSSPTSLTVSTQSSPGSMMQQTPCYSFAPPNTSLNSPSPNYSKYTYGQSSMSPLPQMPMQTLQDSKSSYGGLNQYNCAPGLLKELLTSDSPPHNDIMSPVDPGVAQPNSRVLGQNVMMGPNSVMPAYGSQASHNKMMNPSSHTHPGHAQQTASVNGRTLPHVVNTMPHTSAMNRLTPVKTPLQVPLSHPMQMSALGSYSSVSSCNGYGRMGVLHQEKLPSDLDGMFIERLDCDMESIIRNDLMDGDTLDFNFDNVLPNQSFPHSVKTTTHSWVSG

Tests used:
[1] = target: Foxo1 transcription factor (mouse (endogenous in bone marrow-derived macrophages)) (UniProt Q9R1E0); assay: co-IP; lysate of LPS-stimulated BMMs in NP-40 lysis buffer (50 mM Tris pH 7.4, 10 mM EDTA, 150 mM NaCl, 1% NP-40); Foxo1 antibody or control IgG with protein A/G beads, 4 °C overnight; immunoblot
[2] = target: T1, β-catenin (mouse (endogenous in bone marrow-derived macrophages)), Q02248; assay: co-IP; immunoprecipitation of β-catenin and TCF4 from LPS-stimulated BMMs; cells transfected with CRISPR-Foxo1 activation vector (1 and 3 µg), or from Foxo1 FL/FL and Foxo1 M-KO mice; precipitating antibody not stated; settings: remark: other sources report otherwise
T1 chain: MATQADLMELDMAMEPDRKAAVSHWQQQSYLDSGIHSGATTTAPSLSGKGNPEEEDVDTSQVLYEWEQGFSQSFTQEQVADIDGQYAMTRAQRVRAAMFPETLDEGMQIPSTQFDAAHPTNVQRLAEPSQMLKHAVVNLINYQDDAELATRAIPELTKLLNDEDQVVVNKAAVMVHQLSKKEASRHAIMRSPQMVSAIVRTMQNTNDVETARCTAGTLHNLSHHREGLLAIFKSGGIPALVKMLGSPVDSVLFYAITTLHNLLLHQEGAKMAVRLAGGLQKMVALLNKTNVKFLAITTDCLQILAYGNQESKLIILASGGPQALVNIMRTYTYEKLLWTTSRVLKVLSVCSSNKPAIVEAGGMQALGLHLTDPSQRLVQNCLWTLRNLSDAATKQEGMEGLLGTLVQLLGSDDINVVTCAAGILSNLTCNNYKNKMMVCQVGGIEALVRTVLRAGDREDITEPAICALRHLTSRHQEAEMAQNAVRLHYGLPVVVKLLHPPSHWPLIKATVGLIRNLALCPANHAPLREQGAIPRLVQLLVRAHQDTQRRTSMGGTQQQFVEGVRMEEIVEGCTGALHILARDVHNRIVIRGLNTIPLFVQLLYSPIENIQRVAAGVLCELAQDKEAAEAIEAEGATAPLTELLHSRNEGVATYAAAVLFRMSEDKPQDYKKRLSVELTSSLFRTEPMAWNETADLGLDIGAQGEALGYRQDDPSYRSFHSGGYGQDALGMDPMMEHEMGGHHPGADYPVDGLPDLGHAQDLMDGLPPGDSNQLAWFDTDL

binding [1]: binds
Molecule: β-catenin (from UniProt Q02248 1-781)

binding [2]: binds
B1: T-cell factor 4 (TCF4), Q924A0 1-459 (protein)
chain: MPQLNGGGGDDLGANDELISFKDEGEQEEKNSENSSAERDLADVKSSLVNESETNQDSSSDSEAERRPPPRSESFRDKSRESLEEAAKRQDGGLFKGPPYPGYPFIMIPDLTSPYLPNGSLSPTARTYLQMKWPLLDVQAGSLQSRQTLKDARSPSPAHIVSNKVPVVQHPHHVHPLTPLITYSNEHFTPGNPPPHLPADVDPKTGIPRPPHPPDISPYYPLSPGTVGQIPHPLGWLVPQQGQPVYPITTGGFRHPYPTALTVNASMSRFPPHMVPPHHTLHTTGIPHPAIVTPTVKQESSQSDVGSLHSSKHQDSKKEEEKKKPHIKKPLNAFMLYMKEMRAKVVAECTLKESAAINQILGRRWHALSREEQAKYYELARKERQLHMQLYPGWSARDNYGKKKKRKRDKQPGETNEHSECFLNPCLSLPPITDLSAPKKCRARFGLDQQNNWCGPCSL
